In patent US4876243A (Smithkline Beckman Corporation, priority 1987, dated 1989):
Strings that start with PEPTIDE1 are HELM notation: dots part the residues, brackets hold end groups and non-standard residues.

Experiment: general procedure: Boc solid-phase peptide synthesis; BHA resin; DCC/HOBT; DCC/DMAP for Pmp(4-MeBzl)
Details: whole synthesis, scale 1 mmole

| Substance | isolated mass [mg] | crude mass [mg] |
| --- | --- | --- |
| PEPTIDE1{[Pmp].[D-Tyr(Et)].F.V.N.C.[Aib].R.G.[am]}$PEPTIDE1,PEPTIDE1,1:R3-6:R3$$$V2.0 | 423 | – |
| PEPTIDE1{[Pmp].[D-Tyr(Et)].F.[Aib].N.C.P.R.[am]}$PEPTIDE1,PEPTIDE1,1:R3-6:R3$$$V2.0 | – | 303 |
